Reference: patent EP3912994A1
Results are given in words; binding and its absence hold for the method and conditions named. In cells and extracts the contact can be indirect. These calls come from enrichment with a bait or labelling near it, and not all partners need be listed.

Chains of the proteins cited; added tags and fusions are not shown. Residues count along the entry.
UniProt Q80YX1, residues 23-2110: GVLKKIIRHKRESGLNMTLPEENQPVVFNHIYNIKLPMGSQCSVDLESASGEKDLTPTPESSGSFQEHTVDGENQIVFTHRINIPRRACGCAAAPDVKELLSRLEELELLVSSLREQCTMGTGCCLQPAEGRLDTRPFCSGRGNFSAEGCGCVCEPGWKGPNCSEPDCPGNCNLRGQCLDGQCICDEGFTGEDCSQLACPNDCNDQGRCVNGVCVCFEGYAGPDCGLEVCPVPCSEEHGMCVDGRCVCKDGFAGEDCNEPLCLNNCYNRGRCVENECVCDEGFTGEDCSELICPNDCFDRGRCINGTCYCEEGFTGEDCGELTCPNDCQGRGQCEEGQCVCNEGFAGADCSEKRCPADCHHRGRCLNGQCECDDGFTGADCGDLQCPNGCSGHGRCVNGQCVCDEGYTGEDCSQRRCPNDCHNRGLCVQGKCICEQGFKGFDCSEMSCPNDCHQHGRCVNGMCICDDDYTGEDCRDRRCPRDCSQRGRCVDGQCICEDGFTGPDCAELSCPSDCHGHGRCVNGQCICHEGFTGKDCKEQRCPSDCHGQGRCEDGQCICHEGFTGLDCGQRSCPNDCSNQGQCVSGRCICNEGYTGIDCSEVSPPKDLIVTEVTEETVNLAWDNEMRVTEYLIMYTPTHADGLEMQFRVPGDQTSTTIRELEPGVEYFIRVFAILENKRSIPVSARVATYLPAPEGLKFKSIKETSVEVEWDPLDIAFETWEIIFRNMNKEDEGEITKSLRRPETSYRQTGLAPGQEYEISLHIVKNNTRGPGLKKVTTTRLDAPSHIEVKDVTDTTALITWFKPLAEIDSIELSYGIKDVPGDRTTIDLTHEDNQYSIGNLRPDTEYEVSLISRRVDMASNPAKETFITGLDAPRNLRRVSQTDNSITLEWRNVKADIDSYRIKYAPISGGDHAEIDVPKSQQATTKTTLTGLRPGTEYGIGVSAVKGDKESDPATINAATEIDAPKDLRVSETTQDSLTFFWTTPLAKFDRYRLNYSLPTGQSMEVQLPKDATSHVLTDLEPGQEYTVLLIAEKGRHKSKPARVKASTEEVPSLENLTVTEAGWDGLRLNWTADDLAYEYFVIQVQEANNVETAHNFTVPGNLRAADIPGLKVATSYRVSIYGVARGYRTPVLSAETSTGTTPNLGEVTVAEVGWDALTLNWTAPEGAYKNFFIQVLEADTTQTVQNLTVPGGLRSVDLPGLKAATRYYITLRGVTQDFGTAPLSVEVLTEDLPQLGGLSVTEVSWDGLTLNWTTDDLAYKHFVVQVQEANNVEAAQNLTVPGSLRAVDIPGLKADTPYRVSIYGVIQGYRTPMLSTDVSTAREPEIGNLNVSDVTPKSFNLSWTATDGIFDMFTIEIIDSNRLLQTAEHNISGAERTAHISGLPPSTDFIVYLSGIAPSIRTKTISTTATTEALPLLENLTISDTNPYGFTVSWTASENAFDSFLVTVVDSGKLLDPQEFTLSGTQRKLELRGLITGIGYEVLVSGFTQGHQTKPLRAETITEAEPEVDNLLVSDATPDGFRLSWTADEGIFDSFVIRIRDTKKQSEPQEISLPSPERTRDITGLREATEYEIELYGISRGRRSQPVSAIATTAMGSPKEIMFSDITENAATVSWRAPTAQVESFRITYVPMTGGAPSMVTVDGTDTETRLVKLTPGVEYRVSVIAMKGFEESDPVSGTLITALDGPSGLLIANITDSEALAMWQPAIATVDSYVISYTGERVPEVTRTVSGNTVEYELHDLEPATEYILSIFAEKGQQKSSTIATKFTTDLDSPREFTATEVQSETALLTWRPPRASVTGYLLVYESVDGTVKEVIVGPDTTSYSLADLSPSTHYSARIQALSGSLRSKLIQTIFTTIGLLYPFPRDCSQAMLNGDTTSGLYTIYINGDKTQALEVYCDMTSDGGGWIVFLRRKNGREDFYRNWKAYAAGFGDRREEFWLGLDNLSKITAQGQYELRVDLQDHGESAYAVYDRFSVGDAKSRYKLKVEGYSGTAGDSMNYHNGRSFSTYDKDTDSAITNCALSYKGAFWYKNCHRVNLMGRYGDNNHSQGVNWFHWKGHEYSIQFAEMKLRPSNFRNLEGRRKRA

B1: Glypican-4 (protein, UniProt P51655 19-529, looked up)
chain: SLLAAELKSKSCSEVRRLYVSKGFNKNDAPLYEINGDHLKICPQDYTCCSQEMEEKYSLQSKDDFKTVVSEQCNHLQAIFASRYKKFDEFFKELLENAEKSLNDMFVKTYGHLYMQNSELFKDLFVELKRYYVAGNVNLEEMLNDFWARLLERMFRLVNSQYHFTDEYLECVSKYTEQLKPFGDVPRKLKLQVTRAFVAARTFAQGLAVARDVVSKVSVVNPTAQCTHALLKMIYCSHCRGLVTVKPCYNYCSNIMRGCLANQGDLDFEWNNFIDAMLMVAERLEGPFNIESVMDPIDVKISDAIMNMQDNSVQVSQKVFQGCGPPKPLPAGRISRSISESAFSARFRPYHPEQRPTTAAGTSLDRLVTDVKEKLKQAKKFWSSLPSTVCNDERMAAGNENEDDCWNGKGKSRYLFAVTGNGLANQGNNPEVQVDTSKPDILILRQIMALRVMTSKMKNAYNGNDVDFFDISDESSGEGSGSGCEYQQCPSEFEYNATDHSGKSANEKADS
B2: Heterogeneous nuclear ribonucleoprotein M (protein, UniProt Q9D0E1 2-729, looked up)
chain: AAGVEAAAEVAATEPKMEEESGAPCVPSGNGAPGPKGEERPTQNEKRKEKNIKRGGNRFEPYSNPTKRYRAFITNIPFDVKWQSLKDLVKEKVGEVTYVELLMDAEGKSRGCAVVEFKMEESMKKAAEVLNKHSLSGRPLKVKEDPDGEHARRAMQKVMATTGGMGMGPGGPGMINIPPSILNNPNIPNEIIHALQAGRLGSTVFVANLDYKVGWKKLKEVFSMAGVVVRADILEDKDGKSRGIGIVTFEQSIEAVQAISMFNGQLLFDRPMHVKMDERALPKGDFFPPERPQQLPHGLGGIGMGLGPGGQPIDANHLSKGIGMGNLGPAGMGMEGIGFGINKIGGMEGPFGGGMENMGRFGSGMNMGRINEILSNALKRGEIIAKQGGGGAGGSVPGIERMGPGIDRISGAGMERMGAGLGHGMDRVGSEIERMGLVMDRMGSVERMGSSIERMGPLGLDHMASSIERMGQTMERIGSGVERMGAGMGFGLERMAAPIDRVGQTIERMGSGVERMGPAIERMGLSMDRMVPTGMGASLERMGPVMDRMATGLERMGANNLERMGLERMGANSLERMGLERMGANSLERMGPAMGPALGAGIERMGLAMGGAGGASFDRAIEMERGNFGGSFAGSFGGAGGHAPGVARKACQIFVRNLPFDFTWKMLKDKFNECGHVLYADIKMENGKSKGCGVVKFESPEVAERACRMMNGMKLSGREIDVRIDRNA
B3: Galectin-3-binding protein (protein, UniProt Q07797 19-577, looked up)
chain: TEDGDMRLVNGASANEGRVEIFYRGRWGTVCDNLWNLLDAHVVCRALGYENATQALGRAAFGPGKGPIMLDEVECTGTESSLASCRSLGWMVSRCGHEKDAGVVCSNDTTGLHILDLSGELSDALGQIFDSQQGCDLFIQVTGQGYEDLSLCAHTLILRTNPEAQALWQVVGSSVIMRVDAECMPVVRDFLRYFYSRRIEVSMSSVKCLHKLASAYGATELQDYCGRLFATLLPQDPTFHTPLDLYAYARATGDSMLEDLCVQFLAWNFEPLTQSESWSAVPTTLIQALLPKSELAVSSELDLLKAVDQWSTETIASHEDIERLVEQVRFPMMLPQELFELQFNLSLYQDHQALFQRKTMQALEFHTVPVEVLAKYKGLNLTEDTYKPRLYTSSTWSSLVMASTWRAQRYEYNRYNQLYTYGYGSVARYNSYQSFQTPQHPSFLFKDKQISWSATYLPTMQSCWNYGFSCTSNELPVLGLTTSSYSNPTIGYENRVLILCGGYSVVDVTSFEGSKAPIPTALDTNSSKTPSLFPCASGAFSSFRVVIRPFYLTNSTDMV
B4: Matrilin-4 (protein, UniProt O89029 22-624, looked up)
chain: QLQSAGPRCYNGPLDLVFMIDSSRSVRPFEFETMRQFLVGLLRSLDVGLNATRVGVIQYSSQVQSVFPLGAFSRREDMERAIRAVVPLAQGTMTGLAIQYAMNVAFSEAEGARPSEERVPRVLVIVTDGRPQDRVAEVAAQARARGIEIYAVGVQRADVGSLRTMASPPLDQHVFLVESFDLIQEFGLQFQGRLCGKDLCAELVHGCQHLCVNAPGTFYCACNSGYKLAPDNKNCLALDLCAEGTHGCEHLCVNSVDSYFCRCRAGFALQQDQRSCRAIDYCSFGNHSCQHECVSTLAGPQCRCREGHDLLPDGRSCRVRDFCNGVDHGCEFQCVSEGLSFHCLCPEGRRLQADGKSCDRCREGHVDLVLLVDGSKSVRPQNFELVKRFVNQIVDFLDVSPEGTRVGLVQFSSRVRTEFPLGRYGTAAEVKQAVLAVEYMERGTMTGLALRHMVEHSFSEAQGARPRDLNVPRVGLVFTDGRSQDDISVWAARAKEEGIVMYAVGVGKAVEEELREIASEPSELHVSYSPDFSTMTHLLENLKGSICPEEGIGAGTELRSPCECESLVEFQGRTLGALESLTQNLARLTERLEELENQLASRK
B5: Midkine (ligand, UniProt P12025 23-140, looked up)
chain: KKKEKVKKGSECSEWTWGPCTPSSKDCGMGFREGTCGAQTQRVHCKVPCNWKKEFGADCKYKFESWGACDGSTGTKARQGTLKKARYNAQCQETIRVTKPCTSKTKSKTKAKKGKGKD
B6: Lactadherin (protein, UniProt P21956 23-463, looked up)
chain: ASGDFCDSSLCLNGGTCLTGQDNDIYCLCPEGFTGLVCNETERGPCSPNPCYNDAKCLVTLDTQRGDIFTEYICQCPVGYSGIHCETETNYYNLDGEYMFTTAVPNTAVPTPAPTPDLSNNLASRCSTQLGMEGGAIADSQISASSVYMGFMGLQRWGPELARLYRTGIVNAWTASNYDSKPWIQVNLLRKMRVSGVMTQGASRAGRAEYLKTFKVAYSLDGRKFEFIQDESGGDKEFLGNLDNNSLKVNMFNPTLEAQYIKLYPVSCHRGCTLRFELLGCELHGCSEPLGLKNNTIPDSQMSASSSYKTWNLRAFGWYPHLGRLDNQGKINAWTAQSNSAKEWLQVDLGTQRQVTGIITQGARDFGHIQYVASYKVAHSDDGVQWTVYEEQGSSKVFQGNLDNNSHKKNIFEKPFMARYVRVLPVSWHNRITLRLELLGC
B7: Protein NDNF (protein, UniProt Q8C119 20-568, looked up)
chain: QKLPTRDEELFQMQIRDKEFFHDSSVIPDGAEVSSYLFRDTPRRYFFMVEEDNTPLSVTVTPCDAPLEWKLSLQELHEGSSADGSGDPELLDQQKQQMTDVEGTELFSYKGNDVEYFLSSSSPSGLYQLELLSTEKDTHFKVYATTTPESDQPYPELPYDPRVDVTSFGRTTVTLAWKPSPTASILKQPIEYCVVINKEHNFKSLCAAETKMNADDAFMVAPKPGLDFNPFDFAHFGFPTDNLGKDRSLLAKPSPKVGRHVYWRPKVDIQKICIGNKNIFTVSDLKPDTQYYFDVFMVNTNTNMSTAYVGAFVRTKEEAKQKTVELKDGRVTDVFVKRKGKKFLRFAPVSSHQKVTFFIHSCMDAVQVQVRRDGRLLLSQNVEGIRQFQLRGKPKGKYLIRLKGNRKGASKLKILATTRPSKHAFPSLPEDTRIKAFDKLRTCSSVTVAWLGTQERRKFCIYRKEVDGNYSEDQKRREQNQCLGPDTRKKSEKVLCKYFHSQNLQKAVTTETIRDLQPGKSYLLDVYVVGHGGHSVKYQSKIVKTRKVC

The binders below were run against murine strep-tagged TNC (mTNC) (mouse) (UniProt Q80YX1) (assay: co-purification with recombinant mTNC, 1 M NaCl eluate, mass spectrometry).
For B1, the binding was “binds”. For B2, the binding was “binds”. With B3 the binding was “binds”. In the case of B4, the binding is reported as “binds”. In the case of B5, the binding is reported as “binds”. B6 was tested, and the binding was “binds”. In the case of B7, the binding is reported as “binds”.
